No constants are given. Whether binding was seen depends on the method and setting. In cells and extracts the contact can be indirect. Some entries that bind do so weakly or less than the wild type.
What was measured:
[1] = biological target: GST-fused ALG-2 F122A mutant (human) (UniProt O75340); assay: pull-down; GST-fused ALG-2 proteins on glutathione Sepharose beads, cleared lysates of HEK293 cells; pulldown products analysed by Western blotting with specific antibodies; as described previously [40]; only the target purified
[2] = biological target: GST-fused ALG-2, wild type (human) (UniProt O75340); assay: as above

The chains behind the UniProt entries cited, without tags or fusion partners. Where a name states a change or a piece, a line headed by the entry shows the natural chain unless it says otherwise.
UniProt O75340: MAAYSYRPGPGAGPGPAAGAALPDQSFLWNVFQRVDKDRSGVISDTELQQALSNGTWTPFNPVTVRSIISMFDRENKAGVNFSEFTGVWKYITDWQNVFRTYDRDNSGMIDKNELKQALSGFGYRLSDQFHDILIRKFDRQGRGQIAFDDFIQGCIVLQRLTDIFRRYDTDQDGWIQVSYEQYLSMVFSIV

B1: annexin A7, endogenous protein (protein, UniProt P20073 1-488)
chain: MSYPGYPPTGYPPFPGYPPAGQESSFPPSGQYPYPSGFPPMGGGAYPQVPSSGYPGAGGYPAPGGYPAPGGYPGAPQPGGAPSYPGVPPGQGFGVPPGGAGFSGYPQPPSQSYGGGPAQVPLPGGFPGGQMPSQYPGGQPTYPSQINTDSFSSYPVFSPVSLDYSSEPATVTQVTQGTIRPAANFDAIRDAEILRKAMKGFGTDEQAIVDVVANRSNDQRQKIKAAFKTSYGKDLIKDLKSELSGNMEELILALFMPPTYYDAWSLRKAMQGAGTQERVLIEILCTRTNQEIREIVRCYQSEFGRDLEKDIRSDTSGHFERLLVSMCQGNRDENQSINHQMAQEDAQRLYQAGEGRLGTDESCFNMILATRSFPQLRATMEAYSRMANRDLLSSVSREFSGYVESGLKTILQCALNRPAFFAERLYYAMKGAGTDDSTLVRIVVTRSEIDLVQIKQMFAQMYQKTLGTMIAGDTSGDYRRLLLAIVGQ
binding [1]: binds | binding [2]: binds

From article PMC2927601
